Measurements reported in publication PMC12669963, “PGAM5 cleavage and oligomerization equilibrates mitochondrial dynamics under stress by regulating DRP1 function” (Journal of Cell Science, 2025).
These are yes or no findings as the source states them, for the method shown. Binding seen in cells or lysates may run through a third protein. Some entries that bind do so weakly or less than the wild type. Where a sequence is shown, tags or fusion partners need not be part of it.

Amino acid sequences for entries named in this document (tags omitted).
UniProt O00429: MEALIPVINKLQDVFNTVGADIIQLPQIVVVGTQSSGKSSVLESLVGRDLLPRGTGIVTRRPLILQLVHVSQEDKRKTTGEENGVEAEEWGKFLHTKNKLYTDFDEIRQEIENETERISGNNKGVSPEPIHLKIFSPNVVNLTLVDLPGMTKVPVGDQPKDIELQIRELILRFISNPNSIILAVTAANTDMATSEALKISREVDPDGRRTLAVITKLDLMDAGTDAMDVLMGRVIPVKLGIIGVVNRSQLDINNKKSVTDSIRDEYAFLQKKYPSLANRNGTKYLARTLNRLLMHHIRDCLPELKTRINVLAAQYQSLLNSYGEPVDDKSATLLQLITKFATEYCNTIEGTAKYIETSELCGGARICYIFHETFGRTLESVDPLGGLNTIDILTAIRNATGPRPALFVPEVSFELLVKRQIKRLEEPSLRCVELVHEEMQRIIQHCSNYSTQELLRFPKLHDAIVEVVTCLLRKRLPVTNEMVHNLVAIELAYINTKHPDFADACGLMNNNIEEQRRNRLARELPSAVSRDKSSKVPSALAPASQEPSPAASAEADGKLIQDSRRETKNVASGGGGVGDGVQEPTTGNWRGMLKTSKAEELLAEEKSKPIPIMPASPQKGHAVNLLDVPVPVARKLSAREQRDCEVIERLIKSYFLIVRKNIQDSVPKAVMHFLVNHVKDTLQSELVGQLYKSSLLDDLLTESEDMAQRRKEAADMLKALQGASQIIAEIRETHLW

What was measured:
PGAM5 WT GFP [1] = target: T1, PGAM5 WT GFP (UniProt Q96HS1); experiment: co-IP; GFP-trap beads on lysates of transfected U2OS cells cultured with medium or starved with HBSS for 3 h; same lysis buffer; western blot
T1 sequence: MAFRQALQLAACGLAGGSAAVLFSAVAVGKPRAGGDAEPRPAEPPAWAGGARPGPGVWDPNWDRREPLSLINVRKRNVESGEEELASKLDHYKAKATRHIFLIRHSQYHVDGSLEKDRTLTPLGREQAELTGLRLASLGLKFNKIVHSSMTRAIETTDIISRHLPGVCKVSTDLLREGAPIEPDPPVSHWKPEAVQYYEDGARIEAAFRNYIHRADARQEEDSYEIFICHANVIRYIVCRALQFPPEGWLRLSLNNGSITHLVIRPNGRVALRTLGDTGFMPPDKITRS

PGAM5 WT GFP [2] = target: T1, PGAM5 WT GFP; experiment: co-IP; GFP-trap beads on lysates of transfected HEK293 (methods: HEK293T) cells treated with DMSO or 20 μM CCCP for 2 h; lysis buffer 20 mM Tris-HCl pH 7.4, 200 mM NaCl, 5 mM EDTA, 10 mM MgCl2, 1% Triton X-100; western blot

binding (PGAM5 WT GFP [1]): binds
binding (PGAM5 WT GFP [2]): binds
Substance: dynamin-related protein 1 (DRP1) (from UniProt O00429 1-736)
